These are yes or no findings as the source states them, for the method shown. In cells and extracts the contact can be indirect. A yes stands for co-enrichment or nearness to the bait. Other partners may have been found. Where a sequence is shown, tags or fusion partners need not be part of it. Each block holds one binder with its values, some of them ahead of it.
Tests used:
[1] = biological target: T1, Lst7-protein A (genomically tagged) (S. cerevisiae) (UniProt P53237); assay: affinity purification with mass spectrometry; C-terminal protein A genomically tagged strains; immunoprecipitation with IgG-coated magnetic beads in buffers of varying stringency (75-500 mM NaCl; TC250); bands identified by MALDI fingerprinting or LC-MS/MS
T1 sequence: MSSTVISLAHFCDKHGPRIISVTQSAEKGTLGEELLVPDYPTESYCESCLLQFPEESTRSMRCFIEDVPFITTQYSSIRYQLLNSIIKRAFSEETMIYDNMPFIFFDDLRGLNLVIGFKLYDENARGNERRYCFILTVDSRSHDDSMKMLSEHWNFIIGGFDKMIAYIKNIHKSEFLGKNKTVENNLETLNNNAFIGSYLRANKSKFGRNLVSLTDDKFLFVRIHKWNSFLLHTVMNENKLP

[2] = biological target: T2, Lst4-protein A (genomically tagged) (S. cerevisiae) (UniProt P34239); assay: as above
T2 sequence: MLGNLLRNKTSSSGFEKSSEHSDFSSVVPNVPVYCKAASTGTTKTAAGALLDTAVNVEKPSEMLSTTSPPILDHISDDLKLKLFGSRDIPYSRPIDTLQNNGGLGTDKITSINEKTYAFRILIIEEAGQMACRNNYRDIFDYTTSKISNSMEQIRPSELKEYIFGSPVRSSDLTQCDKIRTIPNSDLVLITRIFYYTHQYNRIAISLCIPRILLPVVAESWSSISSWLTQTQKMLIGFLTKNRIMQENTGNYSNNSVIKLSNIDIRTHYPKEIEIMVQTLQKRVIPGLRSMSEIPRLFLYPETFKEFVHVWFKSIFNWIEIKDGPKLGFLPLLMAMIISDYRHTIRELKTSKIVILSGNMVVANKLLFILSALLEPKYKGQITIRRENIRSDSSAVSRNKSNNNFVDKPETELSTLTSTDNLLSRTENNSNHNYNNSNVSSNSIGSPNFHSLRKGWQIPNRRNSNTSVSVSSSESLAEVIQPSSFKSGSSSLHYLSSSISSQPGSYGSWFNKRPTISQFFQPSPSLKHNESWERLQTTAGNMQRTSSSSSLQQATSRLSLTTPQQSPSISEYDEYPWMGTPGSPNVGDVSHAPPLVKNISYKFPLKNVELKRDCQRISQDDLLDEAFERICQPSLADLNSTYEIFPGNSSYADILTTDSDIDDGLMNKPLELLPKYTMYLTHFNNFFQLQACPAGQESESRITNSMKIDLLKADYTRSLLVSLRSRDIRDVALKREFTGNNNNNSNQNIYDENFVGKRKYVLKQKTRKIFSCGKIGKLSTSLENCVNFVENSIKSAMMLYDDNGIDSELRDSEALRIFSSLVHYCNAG

binding [1]: binds
B1: Lst4 (endogenous, yeast lysate) (protein, UniProt P34239 1-828)
chain: T2 sequence

binding [2]: binds
B2: Lst7 (endogenous, yeast lysate) (protein, UniProt P53237 1-242)
chain: T1 sequence

Reference: PMC4703059
